No constants are given. Whether binding was seen depends on the method and setting. Where a sequence is shown, tags or fusion partners need not be part of it.
Molecular target: T1, Unc45b^Flag, bacteria expressed and purified (mouse) (UniProt Q8CGY6)
T1 sequence: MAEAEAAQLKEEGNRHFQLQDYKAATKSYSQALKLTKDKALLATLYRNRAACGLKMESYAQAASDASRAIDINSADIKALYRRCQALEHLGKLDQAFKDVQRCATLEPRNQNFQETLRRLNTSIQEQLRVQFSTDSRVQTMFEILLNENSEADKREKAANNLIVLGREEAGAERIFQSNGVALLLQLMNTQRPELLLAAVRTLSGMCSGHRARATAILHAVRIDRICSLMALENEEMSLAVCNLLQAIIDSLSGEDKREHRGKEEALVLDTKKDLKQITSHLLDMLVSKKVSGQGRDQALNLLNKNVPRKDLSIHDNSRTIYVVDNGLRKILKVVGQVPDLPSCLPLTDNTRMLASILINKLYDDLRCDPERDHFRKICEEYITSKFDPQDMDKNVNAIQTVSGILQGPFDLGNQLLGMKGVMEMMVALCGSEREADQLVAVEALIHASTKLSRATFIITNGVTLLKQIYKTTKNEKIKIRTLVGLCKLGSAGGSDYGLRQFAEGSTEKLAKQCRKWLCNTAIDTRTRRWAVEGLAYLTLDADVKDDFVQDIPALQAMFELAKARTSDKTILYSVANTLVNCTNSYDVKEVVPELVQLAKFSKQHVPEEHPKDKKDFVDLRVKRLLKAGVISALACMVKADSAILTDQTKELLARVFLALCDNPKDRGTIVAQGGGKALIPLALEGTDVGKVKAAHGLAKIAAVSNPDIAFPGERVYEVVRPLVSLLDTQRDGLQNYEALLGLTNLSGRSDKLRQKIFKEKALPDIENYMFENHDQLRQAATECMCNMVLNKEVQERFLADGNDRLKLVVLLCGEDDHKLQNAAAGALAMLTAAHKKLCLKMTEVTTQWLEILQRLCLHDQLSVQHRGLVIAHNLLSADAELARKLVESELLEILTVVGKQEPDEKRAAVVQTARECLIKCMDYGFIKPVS
Test: SEC; Superose 6 HR 10/300, 50 mM Tris-HCl pH 7.4, 150 mM NaCl, 1 mM DTT; purified proteins run alone or as a complex formed from equimolar amounts; both purified

binding: no binding
B1: Unc45b^Flag, bacteria expressed and purified (protein, UniProt Q8CGY6 1-931)
chain: T1 sequence

From PMC2377097
